Data from the supplement of paper PMC5407854, “Inhibitor of ppGalNAc-T3-mediated O-glycosylation blocks cancer cell invasiveness and lowers FGF23 levels” (eLife, 2017).
The list shows a part of the results. Small differences around the control level are noise.

Legend:
ppGalNAc-T3 sensor = assay: T3 sensor activation Q score (MG/GFP ratio z-score vs DMSO controls) (SD units); higher = more sensor activation (inhibition of ppGalNAc-T3 glycosylation); conditions: HEK293 sensor cells; 10 µM; 6 h
Protocol: (§1)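 Cells were treated with compound at 10 uM for 6 h, then MG/GFP ratio was read by flow cytometry (10,000 cells per well, duplicate wells). Q = (R - R_neg)/SD_neg relative to DMSO vehicle controls; the signal rises when the glycosyltransferase is inhibited.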

ppGalNAc-T2 sensor = assay: T2 sensor activation Q score (MG/GFP ratio z-score vs DMSO controls) (SD units); higher = more sensor activation (inhibition of ppGalNAc-T2 glycosylation); conditions: HEK293 sensor cells; 10 µM; 6 h
Protocol: as §1

O=C1c2ccc(Br)cc2C(=O)N1CCO
T3 sensor activation Q score (ppGalNAc-T3 sensor): -0.485 | T2 sensor activation Q score (ppGalNAc-T2 sensor): 0.06

Cc1ccccc1NC1=CC(=O)CC(c2ccccc2)C1 (stereo not given)
T3 sensor activation Q score (ppGalNAc-T3 sensor): -0.175 | T2 sensor activation Q score (ppGalNAc-T2 sensor): -0.945

COc1ccccc1C(CC(=O)c1ccccc1)CC(=O)c1ccccc1
T3 sensor activation Q score (ppGalNAc-T3 sensor): -0.275 | T2 sensor activation Q score (ppGalNAc-T2 sensor): 0.48

O=C(Nc1ccccc1)Nc1cccc2cccnc12
T3 sensor activation Q score (ppGalNAc-T3 sensor): 0.73 | T2 sensor activation Q score (ppGalNAc-T2 sensor): -0.805

Cc1ccc(O)c(-c2[nH]ncc2C(=O)c2ccccc2)c1
T3 sensor activation Q score (ppGalNAc-T3 sensor): 0.085 | T2 sensor activation Q score (ppGalNAc-T2 sensor): 0.75

Nc1ccn(-c2ccccc2)n1
T3 sensor activation Q score (ppGalNAc-T3 sensor): 1.09 | T2 sensor activation Q score (ppGalNAc-T2 sensor): 0.905

Cc1ccc(NS(=O)(=O)c2ccc(Cl)cc2)cc1
T3 sensor activation Q score (ppGalNAc-T3 sensor): 0.59 | T2 sensor activation Q score (ppGalNAc-T2 sensor): -0.26

CCCCC1CCC(C(=O)NN)CC1 (stereo not given)
T3 sensor activation Q score (ppGalNAc-T3 sensor): 0.01 | T2 sensor activation Q score (ppGalNAc-T2 sensor): -0.035

CCN(CC)C(=O)C1CCCN(Cc2cc(OC)c(O)c(OC)c2)C1 (stereo not given)
T3 sensor activation Q score (ppGalNAc-T3 sensor): -0.01 | T2 sensor activation Q score (ppGalNAc-T2 sensor): 0.99

NNC(=O)c1nc(-c2ccccc2)cc(-c2ccccc2)n1
T3 sensor activation Q score (ppGalNAc-T3 sensor): 2.85 | T2 sensor activation Q score (ppGalNAc-T2 sensor): 0.225

COc1ccccc1N1CCN(C2CCCC(C)C2)CC1 (stereo not given)
T3 sensor activation Q score (ppGalNAc-T3 sensor): 0.495 | T2 sensor activation Q score (ppGalNAc-T2 sensor): -0.21

Cc1cccc(Cn2ncc(O)c(Cl)c2=O)c1
T3 sensor activation Q score (ppGalNAc-T3 sensor): -0.3 | T2 sensor activation Q score (ppGalNAc-T2 sensor): 0.775

O=C(O)CC1Sc2ccccc2NC1=O (stereo not given)
T3 sensor activation Q score (ppGalNAc-T3 sensor): -0.025 | T2 sensor activation Q score (ppGalNAc-T2 sensor): -0.425

CC(=O)c1cccc(NC(=O)C(C)N2C(=O)c3ccccc3C2=O)c1 (stereo not given)
T3 sensor activation Q score (ppGalNAc-T3 sensor): -0.395 | T2 sensor activation Q score (ppGalNAc-T2 sensor): 0.04

c1ccc(CNn2cnnc2)cc1
T3 sensor activation Q score (ppGalNAc-T3 sensor): 1.1 | T2 sensor activation Q score (ppGalNAc-T2 sensor): -0.08

OC1CCN(Cc2ccc(Br)s2)CC1
T3 sensor activation Q score (ppGalNAc-T3 sensor): -0.285 | T2 sensor activation Q score (ppGalNAc-T2 sensor): 1.14

CCCCNC(=O)c1ccc(Cl)cc1
T3 sensor activation Q score (ppGalNAc-T3 sensor): -0.415 | T2 sensor activation Q score (ppGalNAc-T2 sensor): 0.545

CC(=O)c1cc2c(cc1N)OCCO2
T3 sensor activation Q score (ppGalNAc-T3 sensor): -0.24 | T2 sensor activation Q score (ppGalNAc-T2 sensor): 1.23

O=C(c1ccc(F)cc1)N1CCOCC1
T3 sensor activation Q score (ppGalNAc-T3 sensor): -0.015 | T2 sensor activation Q score (ppGalNAc-T2 sensor): 0.66

COc1cc(CN2CCC(C)CC2)c([N+](=O)[O-])cc1OC
T3 sensor activation Q score (ppGalNAc-T3 sensor): 1 | T2 sensor activation Q score (ppGalNAc-T2 sensor): 1.22

O=c1[nH]cnc2scc(-c3cccs3)c12
T3 sensor activation Q score (ppGalNAc-T3 sensor): 0.03 | T2 sensor activation Q score (ppGalNAc-T2 sensor): -0.715

Cc1ccc(NC(=O)Nc2ccc(Cl)cc2)cc1F
T3 sensor activation Q score (ppGalNAc-T3 sensor): 0 | T2 sensor activation Q score (ppGalNAc-T2 sensor): -0.78

CN(C)CCN(C)Cc1cc([N+](=O)[O-])ccc1O
T3 sensor activation Q score (ppGalNAc-T3 sensor): 0.155 | T2 sensor activation Q score (ppGalNAc-T2 sensor): 0.04

CCN(CC)C(=O)C1CCCN(Cc2ccccc2F)C1 (stereo not given)
T3 sensor activation Q score (ppGalNAc-T3 sensor): -0.3 | T2 sensor activation Q score (ppGalNAc-T2 sensor): 0.145

O=C(O)C1CC=CC[C@@H]1Cc1ccccc1 (stereo not given in full)
T3 sensor activation Q score (ppGalNAc-T3 sensor): 0.035 | T2 sensor activation Q score (ppGalNAc-T2 sensor): -0.51

COc1ccc(CC(=O)N2CCOCC2)cc1
T3 sensor activation Q score (ppGalNAc-T3 sensor): 2.25 | T2 sensor activation Q score (ppGalNAc-T2 sensor): 0.975

OC(C#CCN1CCCCC1)c1ccccc1 (stereo not given)
T3 sensor activation Q score (ppGalNAc-T3 sensor): -0.395 | T2 sensor activation Q score (ppGalNAc-T2 sensor): -0.96

Cc1ccc(S(=O)(=O)CCC(=O)O)cc1
T3 sensor activation Q score (ppGalNAc-T3 sensor): 0.18 | T2 sensor activation Q score (ppGalNAc-T2 sensor): 0.33

Cc1nc(C)c(-c2cc(C)c3c(C)nc(C)nc3n2)c(N)n1
T3 sensor activation Q score (ppGalNAc-T3 sensor): 1.4 | T2 sensor activation Q score (ppGalNAc-T2 sensor): -0.325

Cc1cc(C)n(C2CC(=O)N(c3cccc(Cl)c3)C2=O)n1 (stereo not given)
T3 sensor activation Q score (ppGalNAc-T3 sensor): 0.475 | T2 sensor activation Q score (ppGalNAc-T2 sensor): -0.605

Cc1c(Cl)cccc1NC(=O)c1ccco1
T3 sensor activation Q score (ppGalNAc-T3 sensor): 0.345 | T2 sensor activation Q score (ppGalNAc-T2 sensor): -0.4

COc1cc(C)c(CN2CCSCC2)cc1C
T3 sensor activation Q score (ppGalNAc-T3 sensor): -0.36 | T2 sensor activation Q score (ppGalNAc-T2 sensor): -0.715

O=C(Nc1cccc(Cl)c1)c1cnccn1
T3 sensor activation Q score (ppGalNAc-T3 sensor): 0.3 | T2 sensor activation Q score (ppGalNAc-T2 sensor): 1.4

COc1ccccc1Nc1nc(-c2ccc(F)cc2)cs1
T3 sensor activation Q score (ppGalNAc-T3 sensor): 0.36 | T2 sensor activation Q score (ppGalNAc-T2 sensor): -0.95

CC(C)(C)c1ccc(C(=O)Nc2ccc3c(c2)OCO3)cc1
T3 sensor activation Q score (ppGalNAc-T3 sensor): -0.085 | T2 sensor activation Q score (ppGalNAc-T2 sensor): -0.685

NC(=O)CS(=O)(=O)c1ccc(Cl)cc1
T3 sensor activation Q score (ppGalNAc-T3 sensor): -0.295 | T2 sensor activation Q score (ppGalNAc-T2 sensor): -1.66

Nc1cc(N)nc(SCCOc2ccccc2)n1
T3 sensor activation Q score (ppGalNAc-T3 sensor): -0.025 | T2 sensor activation Q score (ppGalNAc-T2 sensor): 0.72

COc1cccc(CN2CCN(c3cccc(C)c3C)CC2)c1OC
T3 sensor activation Q score (ppGalNAc-T3 sensor): 0.37 | T2 sensor activation Q score (ppGalNAc-T2 sensor): 0.04

CN1CCC(O)(c2ccccc2)C(C)(C)C1 (stereo not given)
T3 sensor activation Q score (ppGalNAc-T3 sensor): 0.485 | T2 sensor activation Q score (ppGalNAc-T2 sensor): -0.695

O=C(Nc1ccccc1)Nc1ccc(F)c(Cl)c1
T3 sensor activation Q score (ppGalNAc-T3 sensor): 0.7 | T2 sensor activation Q score (ppGalNAc-T2 sensor): -0.69

O=C(CCSc1ccccc1)Nc1cccc(F)c1
T3 sensor activation Q score (ppGalNAc-T3 sensor): 0.575 | T2 sensor activation Q score (ppGalNAc-T2 sensor): -0.105

Cc1c(Cl)cccc1NC(=O)CCc1ccccc1
T3 sensor activation Q score (ppGalNAc-T3 sensor): -0.185 | T2 sensor activation Q score (ppGalNAc-T2 sensor): -0.97

Cc1ccccc1N1CCN(Cc2sccc2C)CC1
T3 sensor activation Q score (ppGalNAc-T3 sensor): 0.24 | T2 sensor activation Q score (ppGalNAc-T2 sensor): -0.08

CC(=O)C1=C(O)C(=O)N(c2ccccn2)C1c1ccccc1 (stereo not given)
T3 sensor activation Q score (ppGalNAc-T3 sensor): 0.425 | T2 sensor activation Q score (ppGalNAc-T2 sensor): 0.27

Nc1nc(C23CC4CC(CC(C4)C2)C3)cs1
T3 sensor activation Q score (ppGalNAc-T3 sensor): -0.34 | T2 sensor activation Q score (ppGalNAc-T2 sensor): 0.4

O=[N+]([O-])c1ccc(N2CCOCC2)cc1OCCOc1ccccc1
T3 sensor activation Q score (ppGalNAc-T3 sensor): 0.7 | T2 sensor activation Q score (ppGalNAc-T2 sensor): -1.21

O=[N+]([O-])c1cccc(-c2ccccc2)c1
T3 sensor activation Q score (ppGalNAc-T3 sensor): -0.71 | T2 sensor activation Q score (ppGalNAc-T2 sensor): 0.14

CN(C)c1ccc(C2=NN(C=O)C(c3ccccc3)C2)cc1 (stereo not given)
T3 sensor activation Q score (ppGalNAc-T3 sensor): -0.3 | T2 sensor activation Q score (ppGalNAc-T2 sensor): -0.79

CCc1c(O)nc(SC(C)CC)n(-c2ccccc2)c1=O (stereo not given)
T3 sensor activation Q score (ppGalNAc-T3 sensor): -0.24 | T2 sensor activation Q score (ppGalNAc-T2 sensor): 0.39

O=C(O)C1CCCCC1C(=O)Nc1cccc(F)c1 (stereo not given)
T3 sensor activation Q score (ppGalNAc-T3 sensor): -0.1 | T2 sensor activation Q score (ppGalNAc-T2 sensor): 0.875

Cc1ccccc1C(=O)NCCSC1CCCCC1
T3 sensor activation Q score (ppGalNAc-T3 sensor): 1.31 | T2 sensor activation Q score (ppGalNAc-T2 sensor): 0.34

OC1CCCN(Cc2ccccc2)C1 (stereo not given)
T3 sensor activation Q score (ppGalNAc-T3 sensor): 0.095 | T2 sensor activation Q score (ppGalNAc-T2 sensor): 0.41

Cc1ccc(NC2=C(NCCO)C(=O)c3ccccc3C2=O)cc1
T3 sensor activation Q score (ppGalNAc-T3 sensor): -0.345 | T2 sensor activation Q score (ppGalNAc-T2 sensor): -0.55

COc1cccc(Nc2nc(-c3ccc(F)cc3)cs2)c1
T3 sensor activation Q score (ppGalNAc-T3 sensor): 0.51 | T2 sensor activation Q score (ppGalNAc-T2 sensor): 0.02

Cc1ccc(O)c(CCc2ccc(O)cc2)n1
T3 sensor activation Q score (ppGalNAc-T3 sensor): 0.11 | T2 sensor activation Q score (ppGalNAc-T2 sensor): 1.11

CCN(CCN(C)C)Cc1ccc([N+](=O)[O-])cc1
T3 sensor activation Q score (ppGalNAc-T3 sensor): 0.175 | T2 sensor activation Q score (ppGalNAc-T2 sensor): 0.485

COc1ccc(CN2CCSCC2)c(OC)c1OC
T3 sensor activation Q score (ppGalNAc-T3 sensor): 0.615 | T2 sensor activation Q score (ppGalNAc-T2 sensor): 1.5

COc1ccc(CN2CCC(O)CC2)c(C)c1C
T3 sensor activation Q score (ppGalNAc-T3 sensor): 0.385 | T2 sensor activation Q score (ppGalNAc-T2 sensor): -1

C=CCc1ccccc1OCC(=O)NN
T3 sensor activation Q score (ppGalNAc-T3 sensor): 0.75 | T2 sensor activation Q score (ppGalNAc-T2 sensor): -0.235

CCCCOc1ccc(CC(=N)N)cc1Cl
T3 sensor activation Q score (ppGalNAc-T3 sensor): -0.525 | T2 sensor activation Q score (ppGalNAc-T2 sensor): -0.17
